PubChem BioAssay AID1508597 | Cure First – 2020
Shown is a random part of the about 2,100 reagents, under one of the conditions tested. 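Calls flag viability under 80% in either arm, not effects specific to rucaparib; the reference for percent is not stated.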 A reagent listed more than once was tested more than once; the source does not tell the runs apart. Reagent sequences are not shown. Not stated in the record: the 100% reference.

Purpose: 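Knock-downs altering ovarian cancer cell survival with or without PARP inhibitor rucaparib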 (primary screen)
Cells: human ovarian carcinoma lines grown from tumours: OCI-P5x (papillary serous) and OCI-C5x (clear cell)
Reagent: siRNA pool against human genes, 1.25 pmol siRNA per well
Time to read-out: 72 h or 96 h, depending on the cell culture
Challenge: rucaparib 20 µM (about IC30) or vehicle, present until read-out
Rucaparib or vehicle: Vehicle
Cell line: OCI-C5x (clear cell)
Measured: 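ATP luminescence measured at 72 or 96 h according to the culture, then normalised and expressed as percent viability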
Reading the numbers: viability, normalised: higher = more viable cells remaining
Call rule: 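Active when normalised viability falls below 80 percent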
Calls: active = viability under 80%; inactive = viability 80% or more

target	technical replicate	viability, normalised (%)	Outcome
PNKP	1	53.2	active
PNKP	2	45.1	active
PNKP	3	47.6	active
PCDHB16	1	38.4	active
PCDHB16	2	26.5	active
PCDHB16	3	35.2	active
RPS6KA1	1	60.8	active
RPS6KA1	2	54.1	active
RPS6KA1	3	49.3	active
MYO3B	1	67.6	active
MYO3B	1	55.6	active
MYO3B	2	62.4	active
MYO3B	2	61.6	active
MYO3B	3	78.7	active
MYO3B	3	59.5	active
DEAF1	1	52.6	active
DEAF1	2	41.9	active
DEAF1	3	42.4	active
PIK3R4	1	59.8	active
PIK3R4	2	43.8	active
PIK3R4	3	39.5	active
HERC3	1	55.2	active
HERC3	2	66.6	active
HERC3	3	42.7	active

Part of the list above, set out differently:
target | technical replicate | viability, normalised (%) | Outcome
PNKP | 2 | 45.1 | active
PNKP | 3 | 47.6 | active
PCDHB16 | 1 | 38.4 | active
PCDHB16 | 2 | 26.5 | active
PCDHB16 | 3 | 35.2 | active

Additional reagents follow.
target	technical replicate	viability, normalised (%)	Outcome
SLIT1	1	58.7	active
SLIT1	2	43.6	active
SLIT1	3	47	active
NSD2	1	57.9	active
NSD2	2	47.4	active
NSD2	3	50.4	active
TTK	1	44.8	active
TTK	2	47.9	active
TTK	3	42	active
PFKFB1	1	68.5	active
PFKFB1	2	58	active
PFKFB1	3	56.4	active
DGKE	1	71.1	active
DGKE	2	64.4	active
DGKE	3	61.7	active
CAMK1	1	60.2	active
CAMK1	2	56.2	active
CAMK1	3	69	active
MSH2	1	33.7	active
MSH2	1	66.8	active
MSH2	2	74.8	active
MSH2	2	32.6	active
MSH2	3	73.7	active
MSH2	3	27.8	active
DPF1	1	60.1	active
DPF1	2	54.4	active
DPF1	3	55.2	active
TJP2	1	67.9	active
TJP2	2	68.2	active
TJP2	3	49.2	active
TAF5	1	49	active
TAF5	2	51.7	active
TAF5	3	41.9	active
